This is one part of the list. The main result of the screen is listed elsewhere. These columns were measured beside it and carry no call. Most of these compounds were active or inconclusive in the main read-out, so they are no random draw. The note in brackets gives the kind of curve behind each potency; many fits are weak.
Test: qHTS Assay to Find Inhibitors of Chronic Active B-Cell Receptor Signaling
Settings: ABC-DLBCL IkBa-CBG/CBR reporter, luminescence ratio (green luciferase fused to IkBa over red control in TMD8 lymphoma cells), 4 h
Outline: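 TMD8 human ABC-DLBCL cells with doxycycline-inducible IκBα–green luciferase fusion and unfused red luciferase, in 0.5% FBS medium; compounds up to 46 uM, 4 h at 37C. Green/red luminescence ratio, filter-overlap corrected, fitted to concentration-response curves.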

[1] = measured here: CBR red luminescence, cell number
[2] = measured here: IkBa-CBG green luminescence

Structure (SMILES) | AC50 [1] | AC50 [2]
COCCNC(=S)Nc1ccc(N2CCCCC2)cc1 | 15.8 µM [rising, single point] | –
C=CCN=C1S/C(=C/c2ccc([N+](=O)[O-])cc2)C(=O)N1CC=C | 20 µM [rising, partial curve, poor fit] | –
CNC(=S)N(CCc1c(C)[nH]c2ccc(C)cc12)Cc1cccs1 | 35.5 µM [falling, single point] | –
O=C(COC(=O)c1ccc(S(=O)(=O)N2CCOCC2)cc1)Nc1nc(-c2ccccc2)cs1 | 4.11 µM [rising, full curve, poor fit] | –
COc1ccc(CCNC(=O)c2cc(-c3cc(Cl)ccc3O)n[nH]2)cc1OC | 15.8 µM [falling, single point] | –
CC(O)C(NC(=O)OCc1ccccc1)C(=O)OCc1ccccc1 (configuration not stated) | 2.06 µM [rising, partial curve, poor fit] | –
Brc1ccc(-c2nc(-c3cccnc3)no2)o1 | 1.58 µM [rising, full curve, poor fit] | –
CCCOC(=O)c1ccc(NC(=O)CCOc2ccccc2)cc1 | – | 0.58 µM [rising, full curve, poor fit]
C=CCN1CCN(C(c2ccccc2)c2nnnn2CCC(C)C)CC1 (configuration not stated) | 1.58 µM [falling, partial curve, poor fit] | –
CC1CCCN(CCOCCOc2ccccc2-c2ccccc2)C1 (configuration not stated) | 29.1 µM [falling, single point] | –
COc1cc(/C=C2\SC(=S)N(NS(=O)(=O)c3ccccc3)C2=O)cc(OC)c1OC | 12.6 µM [falling, single point] | –
O=C(CSCc1cccc(Cl)c1)N1CCN(Cc2ccc3c(c2)OCO3)CC1 | 23.1 µM [falling, single point] | –
CCOCC(=O)Nc1nc2ccc(OC)cc2s1 | 3.66 µM [falling, full curve, poor fit] | –
O=Cc1cc2ccccc2nc1SCCCF | 15.8 µM [rising, partial curve] | 22.4 µM [falling, single point]
O=[N+]([O-])c1cccc(S(=O)(=O)[N-]c2nc3ccccc3nc2-n2cc[n+](Cc3ccccc3)c2)c1 | 3.98 µM [falling, single point] | –
CCOC(=O)N1C/C(=C\c2ccccc2)C(=O)/C(=C/c2ccccc2)C1 | 0.224 µM [falling, full curve, poor fit] | –
COc1ccccc1CCC(=O)NNC(=O)c1cccs1 | 9.2 µM [falling, partial curve, poor fit] | –
O=C1CSC(=S)N1/N=C/c1cc(Br)c(O)c(Br)c1 | 14.1 µM [rising, partial curve, poor fit] | –
Cc1ccc(NC2=C(Cl)C(=O)OC2OC(=O)c2ccccc2)c(C)c1 (configuration not stated) | 11.2 µM [falling, single point] | –
CC(=O)Nc1nc(C=C(Cl)Cl)cs1 | 0.82 µM [rising, full curve, poor fit] | –
Cn1nc(C(=O)Nc2ccc3c(c2)OCCO3)c2ccccc2c1=O | 1.64 µM [rising, partial curve, poor fit] | –

Structure (SMILES) | AC50 [1] | AC50 [2]
O=C(NCc1ccc2c(c1)OCO2)c1ccc2c(c1)N(Cc1ccccc1F)C(=O)c1ccccc1S2 | 35.5 µM [rising, partial curve, poor fit] | –
Cc1cc(C(=O)NN=Cc2ccc(OC(=O)c3ccco3)cc2)c(C)o1 | 9.2 µM [falling, partial curve] | –
CCCn1cnc2cc(NC(=O)c3ccco3)ccc21 | 3.16 µM [falling, single point] | –
CCC(=O)C1=C(c2ccc(F)cc2)N(C(=O)CC)n2cnnc2S1 | 35.5 µM [rising, single point] | 35.5 µM [falling, single point]
CCOC(=O)CSc1ccc2ccccc2n1 | 2.24 µM [rising, partial curve, poor fit] | –
CC1CCC(NC(=O)c2cccc(S(=O)(=O)N3CCN(C)CC3)c2)CC1 (configuration not stated) | 0.164 µM [rising, full curve, poor fit] | –
CC(C)(C)c1nnc2sc(SCC(=O)N3CCCc4ccccc43)nn2c1=O | 7.08 µM [falling, partial curve] | –
CC(C)Nc1nc2ccccc2c(=O)[nH]1 | 22.4 µM [falling, single point] | –
O=C(NCC(O)c1ccccc1)c1ccccc1 (configuration not stated) | 7.08 µM [falling, partial curve] | –
CCn1c(-c2nonc2NC(=O)c2ccccc2)nc2ccccc21 | 0.0891 µM [falling, full curve, poor fit] | –
COc1ccc(OCc2nnc3n2N=C(c2ccccc2)C(CC(=O)O)S3)cc1 (configuration not stated) | 6.31 µM [rising, single point] | –
Cc1ccc2c(c1)N(C(=O)CCC(=O)NCCCN1CCC(Cc3ccccc3)CC1)CCO2 | 8.91 µM [falling, partial curve] | –
COc1ccc(C(C(=O)NCc2ccccc2)N(C(=O)c2snc(C(N)=O)c2N)c2ccccc2OC)cc1OC (configuration not stated) | 35.5 µM [falling, single point] | –
COc1ccc2cc1Oc1ccc(cc1)C[C@H]1c3cc(c(OC)cc3CCN1C)Oc1c(OC)c(OC)cc3c1[C@H](C2)N(C)CC3 | 20 µM [falling, single point] | –
C/C(N)=C(/C#N)C(=O)CSc1nnnn1-c1ccccc1 | 6.31 µM [rising, single point] | –
COc1ccc(/C=C2\SC(=S)N(c3cccnc3)C2=O)cc1 | 1.78 µM [rising, full curve, poor fit] | –
NC(=O)c1nsc(C(=O)N(c2cccc(F)c2)C(C(=O)NCC2CCCO2)c2c[nH]c3ccccc23)c1N (configuration not stated) | 2.82 µM [rising, partial curve] | –
CCOC(=O)C1(Cc2ccccc2)CCN(Cc2ccc(COC)o2)CC1 | 0.708 µM [falling, full curve] | –
Cc1ccc(CN2CC(C(=O)Nc3cc(C)ccn3)CC2=O)cc1 (configuration not stated) | 0.206 µM [falling, full curve, poor fit] | –
Cc1cc(=O)[nH]c(Nc2ccccc2C)n1 | 39.8 µM [rising, partial curve, poor fit] | –
CC(C)OC(=O)NC(C)(C)COC(=O)Nc1cccc(Cl)c1 | 4.11 µM [rising, full curve, poor fit] | –

Individual results from the results shown:
AC50 [1], `O=C(NCc1ccc2c(c1)OCO2)c1ccc2c(c1)N(Cc1ccccc1F)C(=O)c1ccccc1S2` is entered as 35.5 µM [rising, partial curve, poor fit]
AC50 [1], `O=C1CSC(=S)N1/N=C/c1cc(Br)c(O)c(Br)c1` is entered as 14.1 µM [rising, partial curve, poor fit]
AC50 [1], `CC(O)C(NC(=O)OCc1ccccc1)C(=O)OCc1ccccc1` (configuration not stated) is entered as 2.06 µM [rising, partial curve, poor fit]

The list goes on:

Structure (SMILES) | AC50 [1] | AC50 [2]
CSc1sc(-c2nnc(SCC(=O)Nc3ccccc3)n2C)c2c1C=CCC2 | 3.98 µM [rising, full curve, poor fit] | –
COc1ccc(C(=O)N/N=C/c2ccccn2)cc1OC | 35.5 µM [falling, single point] | –
Cc1c(CC(=O)NCCCCCC(=O)O)c(=O)oc2cc3occ(-c4ccccc4)c3cc12 | 10 µM [rising, partial curve] | –
CCCc1nn(-c2cc(Cl)ccc2OC)c2c1C(=O)CC(C)(C)C2 | 29.1 µM [falling, single point] | –
Cc1ccc(CN(c2ccc(C(=O)N3CCc4ccccc4C3)cc2)S(C)(=O)=O)cc1 | 13 µM [falling, partial curve, poor fit] | –
Cc1onc(-c2ccccc2Cl)c1C(=O)OCC(=O)c1ccc[nH]1 | 10.3 µM [rising, partial curve, poor fit] | –
Clc1ccc(CSc2ncnc3nc[nH]c23)cc1 | 0.651 µM [rising, full curve, poor fit] | –
N#Cc1c(NC(=O)CSc2nnc(-c3ccco3)n2-c2ccccc2)sc2c1CCC2 | 29.1 µM [falling, single point] | 18.4 µM [rising, single point]
CN1CC2CCCC3(C1)C(=O)NC1(CCCCC1)N=C23 (configuration not stated) | 11.2 µM [falling, partial curve, poor fit] | –
Cc1cc(=O)oc2cc(OCC3CC(c4ccccc4Cl)=NO3)ccc12 (configuration not stated) | 5.8 µM [rising, full curve] | 4.11 µM [falling, full curve]
Fc1ccc(COc2ccc(-c3nnco3)cc2)c(Cl)c1 | 17.8 µM [rising, partial curve, poor fit] | –
COc1ccc(C)cc1NC(=O)Nc1ccc(Br)cn1 | 0.0517 µM [rising, full curve, poor fit] | –
Cn1nc(-c2ccccc2)c(-c2nc(-c3ccccc3Cl)no2)c1Cl | 3.66 µM [rising, single point] | –
Cc1nc2nc(SCC(=O)Nc3cccc(F)c3)[nH]c2cc1Br | 1.58 µM [falling, full curve, poor fit] | –
c1ccc2sc(-c3ccncc3)nc2c1 | 1.78 µM [rising, partial curve, poor fit] | –
CCCCc1ccc(NS(=O)(=O)c2cccs2)cc1 | 7.08 µM [rising, partial curve, poor fit] | –
CC(=O)c1cc(F)c(N2CCN(C(=O)COc3ccccc3F)CC2)cc1C | 2.91 µM [rising, partial curve, poor fit] | –
COc1cccc(OCc2nc(-c3ccc(Br)o3)no2)c1 | 4.47 µM [rising, full curve, poor fit] | –
CCc1ccc(-c2nc(CSCC(=O)NCc3ccco3)c(C)o2)cc1 | 15.8 µM [falling, single point] | –
Cc1ccc(NC(=O)CN2C(=O)N/C(=C/c3ccccc3OCc3cccc(C(=O)O)c3)C2=O)cc1 | 7.94 µM [rising, partial curve] | –
CC(C)Cc1cc(C(=O)NCc2cccs2)no1 | 16.4 µM [falling, partial curve] | –

— PubChem BioAssay AID493014 (National Center for Advancing Translational Sciences (NCATS), 2011)
